# The other results are listed elsewhere or left out.
# Key:
# Test in all cases: glycan array binding signal (z-score within array); higher = stronger binding
# Details in all cases: glycan notation: IUPAC condensed, linker removed
# [1] = biological target: Fuc(a1-2)Gal6S(b1-3)GlcNAc
# How it was run: (§1)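 Arrays were curated from the Consortium for Functional Glycomics database, 3228 in total, and kept only where the protein sequence was available. Binding is expressed as a within-array Z-score. This score was averaged across arrays of the same protein sequence at different concentrations or buffers and across linkers, and negative values can be read as non-binding.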
# [2] = biological target: Fuc(a1-2)Gal6S(b1-3)GlcNAc6S
# How it was run: as §1
# Fuc(a1-2)Gal6S(b1-4)Glc = biological target: Fuc(a1-2)Gal6S(b1-4)Glc
# How it was run: as §1
# [3] = biological target: Fuc(a1-2)Gal6S(b1-4)Glc6S
# How it was run: as §1
# Fuc(a1-2)[Gal(a1-3)]Gal = biological target: Fuc(a1-2)[Gal(a1-3)]Gal
# How it was run: as §1
# [4] = biological target: Fuc(a1-2)[Gal(a1-3)]Gal(b1-3)GalNAc
# How it was run: as §1
# [5] = biological target: Fuc(a1-2)[Gal(a1-3)]Gal(b1-3)GalNAc(b1-3)Gal(a1-4)Gal(b1-4)Glc
# How it was run: as §1
# [6] = biological target: Fuc(a1-2)[Gal(a1-3)]Gal(b1-3)GlcNAc
# How it was run: as §1
# [7] = biological target: Fuc(a1-2)[Gal(a1-3)]Gal(b1-3)GlcNAc(b1-2)Man(a1-3)[Fuc(a1-2)[Gal(a1-3)]Gal(b1-3)GlcNAc(b1-2)Man(a1-6)]Man(b1-4)GlcNAc(b1-4)GlcNAc
# How it was run: as §1
# [8] = biological target: Fuc(a1-2)[Gal(a1-3)]Gal(b1-3)GlcNAc(b1-2)Man(a1-3)[Fuc(a1-2)[Gal(a1-3)]Gal(b1-3)GlcNAc(b1-2)Man(a1-6)]Man(b1-4)GlcNAc(b1-4)[Fuc(a1-6)]GlcNAc
# How it was run: as §1
# [9] = biological target: Fuc(a1-2)[Gal(a1-3)]Gal(b1-3)GlcNAc(b1-3)GalNAc
# How it was run: as §1
# [10] = biological target: Fuc(a1-2)[Gal(a1-3)]Gal(b1-3)GlcNAc(b1-6)GalNAc
# How it was run: as §1
# [11] = biological target: Fuc(a1-2)[Gal(a1-3)]Gal(b1-4)Glc
# How it was run: as §1
# [12] = biological target: Fuc(a1-2)[Gal(a1-3)]Gal(b1-4)GlcNAc
# How it was run: as §1
# [13] = biological target: Fuc(a1-2)[Gal(a1-3)]Gal(b1-4)GlcNAc(b1-2)Man
# How it was run: as §1
# [14] = biological target: Fuc(a1-2)[Gal(a1-3)]Gal(b1-4)GlcNAc(b1-2)Man(a1-3)[Fuc(a1-2)[Gal(a1-3)]Gal(b1-4)GlcNAc(b1-2)Man(a1-6)]Man(b1-4)GlcNAc(b1-4)GlcNAc
# How it was run: as §1
# [15] = biological target: Fuc(a1-2)[Gal(a1-3)]Gal(b1-4)GlcNAc(b1-2)Man(a1-3)[Fuc(a1-2)[Gal(a1-3)]Gal(b1-4)GlcNAc(b1-2)Man(a1-6)]Man(b1-4)GlcNAc(b1-4)[Fuc(a1-6)]GlcNAc
# How it was run: as §1
# [16] = biological target: Fuc(a1-2)[Gal(a1-3)]Gal(b1-4)GlcNAc(b1-3)GalNAc
# How it was run: as §1
# [17] = biological target: Fuc(a1-2)[Gal(a1-3)]Gal(b1-4)GlcNAc(b1-3)[Fuc(a1-2)[Gal(a1-3)]Gal(b1-4)GlcNAc(b1-6)]GalNAc
# How it was run: as §1
# [18] = biological target: Fuc(a1-2)[Gal(a1-3)]Gal(b1-4)GlcNAc(b1-6)GalNAc
# How it was run: as §1
# [19] = biological target: Fuc(a1-2)[Gal(a1-3)]Gal(b1-4)[Fuc(a1-3)]Glc
# How it was run: as §1
# [20] = biological target: Fuc(a1-2)[Gal(a1-3)]Gal(b1-4)[Fuc(a1-3)]GlcNAc
# How it was run: as §1
# [21] = biological target: Fuc(a1-2)[Gal(a1-3)]Gal(b1-4)[Fuc(a1-3)]GlcNAc(b1-3)GalNAc
# How it was run: as §1
# [22] = biological target: Fuc(a1-2)[Gal(a1-4)]Gal(b1-4)GlcNAc
# How it was run: as §1
# [23] = biological target: Fuc(a1-2)[GalNAc(a1-3)]Gal
# How it was run: as §1
# [24] = biological target: Fuc(a1-2)[GalNAc(a1-3)]Gal(b1-3)GalNAc(a1-3)[Fuc(a1-2)]Gal(b1-4)GlcNAc
# How it was run: as §1
# [25] = biological target: Fuc(a1-2)[GalNAc(a1-3)]Gal(b1-3)GalNAc(b1-3)Gal(a1-4)Gal(b1-4)Glc
# How it was run: as §1
# [26] = biological target: Fuc(a1-2)[GalNAc(a1-3)]Gal(b1-3)GlcNAc
# How it was run: as §1
# [27] = biological target: Fuc(a1-2)[GalNAc(a1-3)]Gal(b1-3)GlcNAc(b1-2)Man(a1-3)[Fuc(a1-2)[GalNAc(a1-3)]Gal(b1-3)GlcNAc(b1-2)Man(a1-6)]Man(b1-4)GlcNAc(b1-4)GlcNAc
# How it was run: as §1
# [28] = biological target: Fuc(a1-2)[GalNAc(a1-3)]Gal(b1-3)GlcNAc(b1-2)Man(a1-3)[Fuc(a1-2)[GalNAc(a1-3)]Gal(b1-3)GlcNAc(b1-2)Man(a1-6)]Man(b1-4)GlcNAc(b1-4)[Fuc(a1-6)]GlcNAc
# How it was run: as §1
# [29] = biological target: Fuc(a1-2)[GalNAc(a1-3)]Gal(b1-3)GlcNAc(b1-3)GalNAc
# How it was run: as §1
# [30] = biological target: Fuc(a1-2)[GalNAc(a1-3)]Gal(b1-3)GlcNAc(b1-6)GalNAc
# How it was run: as §1
# [31] = biological target: Fuc(a1-2)[GalNAc(a1-3)]Gal(b1-4)Glc
# How it was run: as §1
# [32] = biological target: Fuc(a1-2)[GalNAc(a1-3)]Gal(b1-4)GlcNAc
# How it was run: as §1
# [33] = biological target: Fuc(a1-2)[GalNAc(a1-3)]Gal(b1-4)GlcNAc(b1-2)Man
# How it was run: as §1
# [34] = biological target: Fuc(a1-2)[GalNAc(a1-3)]Gal(b1-4)GlcNAc(b1-2)Man(a1-3)[Fuc(a1-2)[GalNAc(a1-3)]Gal(b1-4)GlcNAc(b1-2)Man(a1-6)]Man(b1-4)GlcNAc(b1-4)GlcNAc
# How it was run: as §1
# [35] = biological target: Fuc(a1-2)[GalNAc(a1-3)]Gal(b1-4)GlcNAc(b1-2)Man(a1-3)[Fuc(a1-2)[GalNAc(a1-3)]Gal(b1-4)GlcNAc(b1-2)Man(a1-6)]Man(b1-4)GlcNAc(b1-4)[Fuc(a1-6)]GlcNAc
# How it was run: as §1
# [36] = biological target: Fuc(a1-2)[GalNAc(a1-3)]Gal(b1-4)GlcNAc(b1-3)Gal(b1-4)GlcNAc
# How it was run: as §1
# [37] = biological target: Fuc(a1-2)[GalNAc(a1-3)]Gal(b1-4)GlcNAc(b1-3)Gal(b1-4)GlcNAc(b1-3)Gal(b1-4)GlcNAc
# How it was run: as §1
# [38] = biological target: Fuc(a1-2)[GalNAc(a1-3)]Gal(b1-4)GlcNAc(b1-3)GalNAc
# How it was run: as §1
# [39] = biological target: Fuc(a1-2)[GalNAc(a1-3)]Gal(b1-4)GlcNAc(b1-3)[Fuc(a1-2)[GalNAc(a1-3)]Gal(b1-4)GlcNAc(b1-6)]GalNAc
# How it was run: as §1
# [40] = biological target: Fuc(a1-2)[GalNAc(a1-3)]Gal(b1-4)GlcNAc(b1-6)GalNAc
# How it was run: as §1
# [41] = biological target: Fuc(a1-2)[GalNAc(a1-3)]Gal(b1-4)[Fuc(a1-3)]GlcNAc
# How it was run: as §1
# [42] = biological target: Fuc(a1-2)[GalNAc(a1-3)]Gal(b1-4)[Fuc(a1-3)]GlcNAc(b1-3)GalNAc
# How it was run: as §1
# [43] = biological target: Fuc(a1-2)[GalNAc(a1-4)]Gal(b1-4)GlcNAc
# How it was run: as §1
binder,measurement,setting,value
"AT5G24760(45) (Arabidopsis thaliana), Q8LEB2 (protein) MSASSSSFEQPQVITCNAAVAWRAGEPLVMEEVEVSPPQPLEIRIKVVCTSLCRSDLSAWESQSLLPRIFGHEAAGIVESIGEGVTEFEKGDHVLAVFTGECGSCRHCISGKSNMCQVLGMERKGLMHSDQKTRFSIKGKPVYHYCAVSSFSEYTVVHSGCAVKVDPLAPLHKICLLSCGVAAGLGAAWNVADVQKGSSVVIFGLGTVGLSVAQGAKLRGAAQILGVDINPAKAEQAKTFGVTDFINSNDLSEPIPQVIKRMTGGGADFSFECVGDTGIATTALQSCSDGWGMTVTLGVPKAKPEVSAHYGLFLSGKSLKGTLFGGWKPKSDLPSLIDKYMNKEIMIDEFITHNLSFDEINKAFVLMREGKCLRCVLHMPK",glycan array binding signal (z-score),[1],-0.529
same,glycan array binding signal (z-score),[2],0.231
same,glycan array binding signal (z-score),Fuc(a1-2)Gal6S(b1-4)Glc,-0.003
same,glycan array binding signal (z-score),[3],-0.028
same,glycan array binding signal (z-score),Fuc(a1-2)[Gal(a1-3)]Gal,0.984
same,glycan array binding signal (z-score),[4],-0.396
same,glycan array binding signal (z-score),[5],0.469
same,glycan array binding signal (z-score),[6],-0.224
same,glycan array binding signal (z-score),[7],-0.171
same,glycan array binding signal (z-score),[8],0.653
same,glycan array binding signal (z-score),[9],-0.15
same,glycan array binding signal (z-score),[10],-0.246
same,glycan array binding signal (z-score),[11],1.2
same,glycan array binding signal (z-score),[12],1.36
same,glycan array binding signal (z-score),[13],-0.259
same,glycan array binding signal (z-score),[14],-0.45
same,glycan array binding signal (z-score),[15],0.499
same,glycan array binding signal (z-score),[16],-0.859
same,glycan array binding signal (z-score),[17],0.627
same,glycan array binding signal (z-score),[18],-0.417
same,glycan array binding signal (z-score),[19],-1.01
same,glycan array binding signal (z-score),[20],0.873
same,glycan array binding signal (z-score),[21],1.05
same,glycan array binding signal (z-score),[22],-0.328
same,glycan array binding signal (z-score),[23],-0.273
same,glycan array binding signal (z-score),[24],0.048
same,glycan array binding signal (z-score),[25],-0.313
same,glycan array binding signal (z-score),[26],-0.182
same,glycan array binding signal (z-score),[27],-0.135
same,glycan array binding signal (z-score),[28],-1.04
same,glycan array binding signal (z-score),[29],3.83
same,glycan array binding signal (z-score),[30],-0.586
same,glycan array binding signal (z-score),[31],0.375
same,glycan array binding signal (z-score),[32],-0.657
same,glycan array binding signal (z-score),[33],-0.179
same,glycan array binding signal (z-score),[34],-0.164
same,glycan array binding signal (z-score),[35],1.92
same,glycan array binding signal (z-score),[36],0.254
same,glycan array binding signal (z-score),[37],-0.1
same,glycan array binding signal (z-score),[38],-0.245
same,glycan array binding signal (z-score),[39],-0.246
same,glycan array binding signal (z-score),[40],-0.654
same,glycan array binding signal (z-score),[41],1.4
same,glycan array binding signal (z-score),[42],6.82
same,glycan array binding signal (z-score),[43],-0.406

# For reference, some entries already given.
binder,measurement,setting,value
"AT5G24760(45) (Arabidopsis thaliana), Q8LEB2 (protein) MSASSSSFEQPQVITCNAAVAWRAGEPLVMEEVEVSPPQPLEIRIKVVCTSLCRSDLSAWESQSLLPRIFGHEAAGIVESIGEGVTEFEKGDHVLAVFTGECGSCRHCISGKSNMCQVLGMERKGLMHSDQKTRFSIKGKPVYHYCAVSSFSEYTVVHSGCAVKVDPLAPLHKICLLSCGVAAGLGAAWNVADVQKGSSVVIFGLGTVGLSVAQGAKLRGAAQILGVDINPAKAEQAKTFGVTDFINSNDLSEPIPQVIKRMTGGGADFSFECVGDTGIATTALQSCSDGWGMTVTLGVPKAKPEVSAHYGLFLSGKSLKGTLFGGWKPKSDLPSLIDKYMNKEIMIDEFITHNLSFDEINKAFVLMREGKCLRCVLHMPK",glycan array binding signal (z-score),[4],-0.396
same,glycan array binding signal (z-score),[5],0.469
same,glycan array binding signal (z-score),[6],-0.224
same,glycan array binding signal (z-score),[7],-0.171
same,glycan array binding signal (z-score),[8],0.653
same,glycan array binding signal (z-score),[9],-0.15
same,glycan array binding signal (z-score),[10],-0.246
same,glycan array binding signal (z-score),[11],1.2
same,glycan array binding signal (z-score),[12],1.36
same,glycan array binding signal (z-score),[13],-0.259
same,glycan array binding signal (z-score),[14],-0.45
same,glycan array binding signal (z-score),[15],0.499

# Source: the supplement of paper PMC8728848
